From article PMC11197489 come the findings set out here.

Amino acid sequences for entries named in this document (tags omitted). Residues count along the entry.
UniProt Q9Z2C8, whole entry: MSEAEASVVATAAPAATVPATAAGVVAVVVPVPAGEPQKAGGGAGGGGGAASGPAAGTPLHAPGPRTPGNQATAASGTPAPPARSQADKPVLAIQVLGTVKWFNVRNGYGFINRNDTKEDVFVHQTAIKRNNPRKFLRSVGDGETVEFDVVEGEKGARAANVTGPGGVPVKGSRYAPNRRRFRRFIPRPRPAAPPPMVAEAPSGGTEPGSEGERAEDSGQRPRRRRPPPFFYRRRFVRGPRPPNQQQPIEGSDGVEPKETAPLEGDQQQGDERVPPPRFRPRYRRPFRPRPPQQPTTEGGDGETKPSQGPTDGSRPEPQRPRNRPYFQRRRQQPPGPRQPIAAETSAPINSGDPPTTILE
UniProt Q9Y2T7, 85-177: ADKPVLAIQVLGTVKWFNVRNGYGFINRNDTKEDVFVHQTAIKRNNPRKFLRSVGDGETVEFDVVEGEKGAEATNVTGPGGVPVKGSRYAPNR

In one data set the target is YBX2 from testis lysate (UniProt Q9Z2C8). The experiment in a line: pull-down. As to conditions: pull-down: 100 mM NaCl, 10 mM Tris-HCl pH 7.6, 2 mM EDTA, 0.5% NP-40, 4 C, protein in an extract, label: 5' biotin.
Data set [1] addresses hYBX2 CSD (EMSA WT) (human) (UniProt Q9Y2T7). The data set is described as follows: EMSA. As to conditions: m5C at positions 11 and 13; EMSA: 50 mM Tris-HCl pH 7.5, 100 mM NaCl, 0.4 mM EDTA, 0.1% NP-40, 1 mM DTT, 50% glycerol, BSA, on ice, 0.2% glutaraldehyde; recombinant protein; protein details: His6-SUMO removed by Ulp1; label: 5' biotin.

Construct, isoform or probe ends are uncertain for at least one entry. For part of these data: At least one result comes from cells or an extract, where the contact may be indirect. For part of these data: The comparison behind a weaker result is the experiment's own reference, which may not be listed here. At least one verdict rests on a figure or table, not on a statement of the authors.

Turning to “AGAGUGAAACUCCAUCUCAAAC [pull-down m5C RNA]”, the binding result in the data set with YBX2 from testis lysate (m5C at positions 12 and 13) is reported as “binds”.

“AGAGUGAAACUCCAUCUCAAAC [pull-down unme-C RNA]”: the binding result with YBX2 from testis lysate is on record as “binds more weakly”.

In the case of CGACGGCGGUCUCGGGAACC [EMSA m5C RNA], the binding result in data set [1] is on record as “binds”.
